In the supplement of paper PMC8728848:
The list shows a part of the results.

Experiments:
Assay in all cases: glycan array binding signal (z-score within array); higher = stronger binding
Conditions in all cases: glycan notation: IUPAC condensed, linker removed
[1] = target: Neu5Ac(a2-8)Neu5Ac
How it was run: (§1)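 The binding signal is a Z-score computed within each array. Data were drawn from 3228 arrays in the Consortium for Functional Glycomics database, restricted to those with a known protein sequence. Scores were averaged over arrays of the same protein sequence at different concentrations or buffers, and over linkers, and negative values can be taken as non-binding.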

[2] = target: Neu5Ac(a2-8)Neu5Ac(a2-3)Gal(b1-3)GalNAc(b1-4)[Neu5Ac(a2-3)]Gal(b1-4)Glc
How it was run: as §1

[3] = target: Neu5Ac(a2-8)Neu5Ac(a2-3)Gal(b1-3)GalNAc(b1-4)[Neu5Ac(a2-8)Neu5Ac(a2-3)]Gal(b1-4)Glc
How it was run: as §1

[4] = target: Neu5Ac(a2-8)Neu5Ac(a2-3)Gal(b1-4)Glc
How it was run: as §1

[5] = target: Neu5Ac(a2-8)Neu5Ac(a2-3)Gal(b1-4)GlcNAc
How it was run: as §1

[6] = target: Neu5Ac(a2-8)Neu5Ac(a2-3)[Gal(b1-3)GalNAc(b1-4)]Gal(b1-4)Glc
How it was run: as §1

[7] = target: Neu5Ac(a2-8)Neu5Ac(a2-3)[GalNAc(b1-4)]Gal(b1-4)Glc
How it was run: as §1

[8] = target: Neu5Ac(a2-8)Neu5Ac(a2-8)Neu5Ac
How it was run: as §1

[9] = target: Neu5Ac(a2-8)Neu5Ac(a2-8)Neu5Ac(a2-3)Gal(b1-4)Glc
How it was run: as §1

[10] = target: Neu5Ac(a2-8)Neu5Ac(a2-8)Neu5Ac(a2-3)[Gal(b1-3)GalNAc(b1-4)]Gal(b1-4)Glc
How it was run: as §1

[11] = target: Neu5Ac(a2-8)Neu5Ac(a2-8)Neu5Ac(a2-3)[GalNAc(b1-4)]Gal(b1-4)Glc
How it was run: as §1

[12] = target: Neu5Ac(a2-8)Neu5Ac(a2-8)Neu5Ac(a2-8)Neu5Ac(a2-3)[GalNAc(b1-4)]Gal(b1-4)Glc
How it was run: as §1

[13] = target: Neu5Ac(a2-8)Neu5Gc(a2-3)Gal(b1-4)GlcNAc
How it was run: as §1

[14] = target: Neu5Ac(b2-6)Gal(b1-4)GlcNAc
How it was run: as §1

[15] = target: Neu5Ac(b2-6)GalNAc
How it was run: as §1

[16] = target: Neu5Ac9Ac(a2-3)Gal(b1-3)GlcNAc
How it was run: as §1

[17] = target: Neu5Ac9Ac(a2-3)Gal(b1-4)GlcNAc
How it was run: as §1

[18] = target: Neu5Ac9Ac(a2-6)Gal(b1-4)GlcNAc
How it was run: as §1

[19] = target: Neu5Gc(a2-3)Gal(b1-3)GlcNAc
How it was run: as §1

[20] = target: Neu5Gc(a2-3)Gal(b1-3)[Fuc(a1-4)]GlcNAc
How it was run: as §1

[21] = target: Neu5Gc(a2-3)Gal(b1-4)Glc
How it was run: as §1

[22] = target: Neu5Gc(a2-3)Gal(b1-4)GlcNAc
How it was run: as §1

[23] = target: Neu5Gc(a2-3)Gal(b1-4)GlcNAc(b1-3)Gal(b1-4)GlcNAc(b1-2)Man(a1-3)[Neu5Gc(a2-3)Gal(b1-4)GlcNAc(b1-3)Gal(b1-4)GlcNAc(b1-2)Man(a1-6)]Man(b1-4)GlcNAc(b1-4)GlcNAc
How it was run: as §1

[24] = target: Neu5Gc(a2-3)Gal(b1-4)[Fuc(a1-3)]GlcNAc
How it was run: as §1

[25] = target: Neu5Gc(a2-6)Gal(b1-4)GlcNAc
How it was run: as §1

[26] = target: Neu5Gc(a2-6)GalNAc
How it was run: as §1

[27] = target: Neu5Gc(a2-8)Neu5Ac(a2-3)Gal(b1-4)GlcNAc
How it was run: as §1

[28] = target: Neu5Gc(a2-8)Neu5Gc(a2-3)Gal(b1-4)GlcNAc
How it was run: as §1

[29] = target: Neu5Gc(a2-8)Neu5Gc(a2-3)Gal(b1-4)GlcNAc(b1-3)Gal(b1-4)GlcNAc
How it was run: as §1

[30] = target: Neu5Gc(a2-8)Neu5Gc(a2-6)Gal(b1-4)GlcNAc
How it was run: as §1

[31] = target: Neu5Gc(b2-6)Gal(b1-4)GlcNAc
How it was run: as §1

B1: PX9961M-bvu-482-23-482 (Bacteroides vulgatus) (protein)
chain: WLDLAPSTQVDTETSINVLSDIEFTLNGIYSTMQSSDAYSGRLVYYGDVTGDDMQAVSSTKRTGNYYRFNFTKDNGPSSHWSYLYSIIQNCNLILMNVDKLSIDEDETEYKNDLKGQALAIRGMALFDLTRIFGYPYLKDNGASLGVPIVKELSTIDSKPARNTVAECYTEIISDLKNSTELLSGDFNKGKVNRWAAMTLLSRVYLYKGEYNEALTMAENAIKGAEKEGYALWTNEEYPTAWGNDASASNPGEILFEIVNLTTDSPGKESMGYLNSYNGYDDMCITCSFYQLLKKDPKDVRLKILSFDKKYYAYVNKYQPQQGENITDANIPLIRLSEAYLNAAEAAVQTGDNAKAVKYLNSIVQRANPENSVEGKTLTLENVLDERRKELVAEGHRMYDVIRNGMTVKRIDVKDSDINKTKHNTAYMEYDWNFHKILLPIPKKEMDANPNMKQNPGYVD
Q: For B1, which “glycan array binding signal (z-score)” value [1] is on record?
A: Its value is 0.366.

Q: What about the “glycan array binding signal (z-score)” value [2] of the same binder?
A: The value was 0.534.

Q: And the “glycan array binding signal (z-score)” value [3]?
A: The value was -1.07.

Q: And the “glycan array binding signal (z-score)” value [4]?
A: The value was 0.075.

Q: And the “glycan array binding signal (z-score)” value [5]?
A: Its value is 0.316.

Q: And the “glycan array binding signal (z-score)” value [6]?
A: The value was -0.531.

Q: And the “glycan array binding signal (z-score)” value [7]?
A: The value was -0.405.

Q: And the “glycan array binding signal (z-score)” value [8]?
A: Its value is -0.752.

Q: What about the “glycan array binding signal (z-score)” value [9] of the same binder?
A: Its value is -0.188.

Q: What about the “glycan array binding signal (z-score)” value [10] of the same binder?
A: The value was -0.778.

Q: And the “glycan array binding signal (z-score)” value [11]?
A: The value was -0.066.

Q: What about the “glycan array binding signal (z-score)” value [12] of the same binder?
A: Its value is 0.048.

Q: What about the “glycan array binding signal (z-score)” value [13] of the same binder?
A: The value was 18.

Q: And the “glycan array binding signal (z-score)” value [14]?
A: The value was -1.13.

Q: And the “glycan array binding signal (z-score)” value [15]?
A: The value was -0.083.

Q: And the “glycan array binding signal (z-score)” value [16]?
A: The value was 0.98.

Q: What about the “glycan array binding signal (z-score)” value [17] of the same binder?
A: The value was -0.723.

Q: What about the “glycan array binding signal (z-score)” value [18] of the same binder?
A: Its value is -0.642.

Q: And the “glycan array binding signal (z-score)” value [19]?
A: The value was -0.493.

Q: And the “glycan array binding signal (z-score)” value [20]?
A: Its value is -0.288.

Q: And the “glycan array binding signal (z-score)” value [21]?
A: The value was 0.689.

Q: What about the “glycan array binding signal (z-score)” value [22] of the same binder?
A: The value was -0.652.

Q: And the “glycan array binding signal (z-score)” value [23]?
A: Its value is -0.131.

Q: And the “glycan array binding signal (z-score)” value [24]?
A: The value was 0.76.

Q: What about the “glycan array binding signal (z-score)” value [25] of the same binder?
A: The value was 0.549.

Q: And the “glycan array binding signal (z-score)” value [26]?
A: Its value is -0.028.

Q: And the “glycan array binding signal (z-score)” value [27]?
A: The value was -0.58.

Q: What about the “glycan array binding signal (z-score)” value [28] of the same binder?
A: Its value is -0.374.

Q: What about the “glycan array binding signal (z-score)” value [29] of the same binder?
A: The value was -0.334.

Q: What about the “glycan array binding signal (z-score)” value [30] of the same binder?
A: The value was -0.75.

Q: And the “glycan array binding signal (z-score)” value [31]?
A: Its value is -0.362.
